Source: PMC10589240

Chains of the proteins cited; added tags and fusions are not shown. Lines headed by an entry give the natural chain unless they say otherwise; changes in a name come on top.
UniProt Q14669: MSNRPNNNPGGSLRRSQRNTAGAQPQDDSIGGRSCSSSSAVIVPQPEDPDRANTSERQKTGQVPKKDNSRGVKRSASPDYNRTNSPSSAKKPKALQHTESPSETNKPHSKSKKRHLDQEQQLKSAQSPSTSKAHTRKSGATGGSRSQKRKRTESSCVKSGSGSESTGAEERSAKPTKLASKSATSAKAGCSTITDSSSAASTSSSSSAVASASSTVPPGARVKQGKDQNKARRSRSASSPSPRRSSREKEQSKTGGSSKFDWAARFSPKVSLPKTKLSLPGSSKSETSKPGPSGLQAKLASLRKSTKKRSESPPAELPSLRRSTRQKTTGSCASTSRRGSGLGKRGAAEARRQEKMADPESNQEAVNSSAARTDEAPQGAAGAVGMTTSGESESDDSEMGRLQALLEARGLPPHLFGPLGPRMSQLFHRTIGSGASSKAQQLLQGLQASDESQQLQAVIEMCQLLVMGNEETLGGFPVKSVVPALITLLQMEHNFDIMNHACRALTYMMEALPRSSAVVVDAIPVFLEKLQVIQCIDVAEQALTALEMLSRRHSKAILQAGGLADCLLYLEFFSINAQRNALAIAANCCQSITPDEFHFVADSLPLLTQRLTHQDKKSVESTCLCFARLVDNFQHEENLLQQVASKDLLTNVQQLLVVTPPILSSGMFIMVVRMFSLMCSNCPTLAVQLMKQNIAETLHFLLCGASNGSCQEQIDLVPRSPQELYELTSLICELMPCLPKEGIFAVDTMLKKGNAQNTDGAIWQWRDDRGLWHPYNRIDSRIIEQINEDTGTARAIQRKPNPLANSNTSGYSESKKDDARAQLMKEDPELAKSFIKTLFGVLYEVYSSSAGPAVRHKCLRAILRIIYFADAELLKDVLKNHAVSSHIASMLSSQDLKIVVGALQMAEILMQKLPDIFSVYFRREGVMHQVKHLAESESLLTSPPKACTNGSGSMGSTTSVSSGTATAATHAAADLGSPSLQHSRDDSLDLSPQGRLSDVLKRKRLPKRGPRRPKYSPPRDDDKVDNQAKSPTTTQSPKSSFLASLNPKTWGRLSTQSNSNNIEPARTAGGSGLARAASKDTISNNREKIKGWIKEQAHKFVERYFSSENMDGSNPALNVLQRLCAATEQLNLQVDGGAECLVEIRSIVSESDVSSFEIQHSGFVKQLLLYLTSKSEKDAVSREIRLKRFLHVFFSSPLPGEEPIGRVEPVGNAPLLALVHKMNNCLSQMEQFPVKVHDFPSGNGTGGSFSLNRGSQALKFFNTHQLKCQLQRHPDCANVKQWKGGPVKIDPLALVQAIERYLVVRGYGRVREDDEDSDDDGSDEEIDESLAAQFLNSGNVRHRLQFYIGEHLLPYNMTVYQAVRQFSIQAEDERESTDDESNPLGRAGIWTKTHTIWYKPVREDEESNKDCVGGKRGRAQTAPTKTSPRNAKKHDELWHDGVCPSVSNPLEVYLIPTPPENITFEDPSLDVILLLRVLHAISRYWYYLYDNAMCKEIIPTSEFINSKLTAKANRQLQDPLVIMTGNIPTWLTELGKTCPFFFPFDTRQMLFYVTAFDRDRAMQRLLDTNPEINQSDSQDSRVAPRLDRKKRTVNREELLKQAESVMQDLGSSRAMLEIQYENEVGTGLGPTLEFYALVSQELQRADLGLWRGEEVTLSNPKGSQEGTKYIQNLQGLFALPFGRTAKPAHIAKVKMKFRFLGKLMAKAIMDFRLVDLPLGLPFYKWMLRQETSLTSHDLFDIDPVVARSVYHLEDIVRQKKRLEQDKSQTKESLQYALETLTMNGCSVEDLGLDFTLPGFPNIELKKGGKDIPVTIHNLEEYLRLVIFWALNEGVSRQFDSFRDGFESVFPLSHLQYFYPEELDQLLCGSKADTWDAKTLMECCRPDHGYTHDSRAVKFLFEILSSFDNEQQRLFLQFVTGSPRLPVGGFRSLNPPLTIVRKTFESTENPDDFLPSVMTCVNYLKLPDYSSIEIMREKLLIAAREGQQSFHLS
UniProt Q13485: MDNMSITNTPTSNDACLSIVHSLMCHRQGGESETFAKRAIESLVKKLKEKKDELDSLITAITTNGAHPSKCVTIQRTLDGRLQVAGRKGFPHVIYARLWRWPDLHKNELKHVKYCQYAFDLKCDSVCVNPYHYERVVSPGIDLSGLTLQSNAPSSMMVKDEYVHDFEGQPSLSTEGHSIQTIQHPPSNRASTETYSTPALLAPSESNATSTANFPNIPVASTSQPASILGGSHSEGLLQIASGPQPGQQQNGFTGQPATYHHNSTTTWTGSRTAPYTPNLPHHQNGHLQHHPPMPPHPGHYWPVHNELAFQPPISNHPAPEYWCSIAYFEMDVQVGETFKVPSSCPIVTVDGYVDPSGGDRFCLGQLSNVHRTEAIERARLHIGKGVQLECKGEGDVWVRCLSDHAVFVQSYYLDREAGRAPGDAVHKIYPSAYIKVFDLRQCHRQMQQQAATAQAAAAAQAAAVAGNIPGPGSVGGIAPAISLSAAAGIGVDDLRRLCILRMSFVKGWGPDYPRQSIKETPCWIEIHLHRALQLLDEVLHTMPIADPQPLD

Tests used:
[1] = biological target: GFP-tagged wildtype TRIP12 (human) (UniProt Q14669); assay: co-IP; GFP-TRIP12 wildtype and deletion mutants expressed in TRIP12-/- HEK293T cells; IP and Western blot for endogenous SMAD4
[2] = biological target: Myc-tagged TRIP12 (human) (UniProt Q14669); assay: co-IP; IP of Myc-TRIP12 with anti-Myc dynabeads from HEK293T cell lysates, Western blot

binding [1]: binds
binding [2]: binds
Substance: SMAD4, endogenous (from UniProt Q13485 1-552)

Results are given in words; binding and its absence hold for the method and conditions named. In cells and extracts the contact can be indirect. Binding can be weak; no strength is given.
